Values of other authors as cited in patent US20120225789A1, “DNA REPAIR OR BRCA1-LIKE GENE SIGNATURE” (Baylor College of Medicine, priority 2009, published 2012).
At least one structure is not confirmed: it was looked up by name or label, or the drawing left a doubt.

System: non-BRCA1-like tumors
Settings: in certain embodiments

For `Cc1nc(Nc2ncc(C(=O)Nc3c(C)cccc3Cl)s2)cc(N2CCN(CCO)CC2)n1` [dasatinib], the dasatinib sensitivity is given as “sensitivity”.
